This passage reports binding results from publication PMC12714725.

Sequences of proteins named here, by UniProt entry; tags and fusion partners are left off.
UniProt P48727: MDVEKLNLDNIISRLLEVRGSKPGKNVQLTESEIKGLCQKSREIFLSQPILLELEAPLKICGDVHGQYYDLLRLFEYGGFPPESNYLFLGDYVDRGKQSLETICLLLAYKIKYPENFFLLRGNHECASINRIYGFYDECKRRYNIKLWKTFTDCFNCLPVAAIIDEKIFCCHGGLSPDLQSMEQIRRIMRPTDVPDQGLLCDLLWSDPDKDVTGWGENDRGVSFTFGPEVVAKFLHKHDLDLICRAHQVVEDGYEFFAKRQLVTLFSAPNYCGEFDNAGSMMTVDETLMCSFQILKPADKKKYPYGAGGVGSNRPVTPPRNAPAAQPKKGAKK

This experiment addresses mNeonGreen tagged GSP-2 (C. elegans) (UniProt P48727). Kind of experiment: affinity purification with mass spectrometry; mNeonGreen::GSP-2 precipitated from about 3 mg embryonic extract with mNeonGreen-Trap Agarose beads, 4 °C, 1.5 h; IP buffer 100 mM KCl, 50 mM Tris pH 7.5, 1 mM MgCl2, 1 mM DTT, 5% glycerol, 0.2% NP-40, 1 mM EDTA; N2 strain as control; triplicate; DIA mass spectrometry.

No constants are given. Whether binding was seen depends on the method and setting. Binding seen in cells or lysates may run through a third protein. Here binding means that the protein was enriched with, or labelled near, the bait; the list need not be complete.

SZY-2(I-2) (from UniProt Q9N537): the binding result was “binds”.
